Our source for the survivor count and T/C values is PubChem BioAssay AID200 (DTP/NCI, 2004).

This test has as its system B6C3F1 mice, B16 melanoma ip, median survival T/C. The test is described as follows: NCI In Vivo Anticancer Drug Screen. Data for tumor model B16 Melanoma (intraperitoneal) in B6C3F1 mice. The following applies: T/C endpoint: median survival time, higher T/C = longer survival. In short, it runs like this:
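Readout: survival or tumor size in treated mice relative to vehicle controls (T/C). Model uses transplantable tumors grown in mice.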

[1] abbreviates: dose: 50.0 mg/kg/injection, schedule: Q01DX009 (ip), vehicle: saline.
The mark [2] stands for this setting: dose: 200.0 mg/kg/injection, schedule: Q01DX009 (ip), vehicle: saline.
Where [3] appears, read: dose: 400.0 mg/kg/injection, schedule: Q01DX009 (ip), vehicle: saline.
[4] abbreviates: dose: 25.0 mg/kg/injection, schedule: Q01DX009 (ip), vehicle: saline.
[5] abbreviates: dose: 25.0 mg/kg/injection, schedule: Q01DX009 (ip), vehicle: Klucel (hydroxypropylcellulose) (HPC).
The mark [6] stands for this setting: dose: 50.0 mg/kg/injection, schedule: Q01DX009 (ip), vehicle: Klucel (hydroxypropylcellulose) (HPC).
Setting [7] is: dose: 400.0 mg/kg/injection, schedule: Q01DX009 (ip), vehicle: saline with Tween-80.
Where [8] appears, read: dose: 6.25 mg/kg/injection, schedule: Q01DX009 (ip), vehicle: Klucel (hydroxypropylcellulose) (HPC).
Setting [9] is: dose: 100.0 mg/kg/injection, schedule: Q01DX009 (ip), vehicle: saline with Tween-80.
[10] abbreviates: dose: 200.0 mg/kg/injection, schedule: Q01DX009 (ip), vehicle: saline with Tween-80.
[11] abbreviates: dose: 50.0 mg/kg/injection, schedule: Q01DX009 (ip), vehicle: suspension in saline.
Setting [12] is: dose: 100.0 mg/kg/injection, schedule: Q01DX009 (ip), vehicle: saline.
[13] abbreviates: dose: 100.0 mg/kg/injection, schedule: Q01DX009 (ip), vehicle: suspension in saline.
The mark [14] stands for this setting: dose: 6.25 mg/kg/injection, schedule: Q01DX009 (ip), vehicle: saline.
[15] abbreviates: dose: 12.5 mg/kg/injection, schedule: Q01DX009 (ip), vehicle: saline.
Setting [16] is: dose: 50.0 mg/kg/injection, schedule: Q01DX009 (ip), vehicle: saline with Tween-80.
Where [17] appears, read: dose: 12.5 mg/kg/injection, schedule: Q01DX009 (ip), vehicle: water.
Setting [18] is: dose: 100.0 mg/kg/injection, schedule: Q01DX009 (ip), vehicle: other.

Structures are written as SMILES. The list is a part of this screen's results and no random one: it gathers tests that were run many times, whatever their T/C, doses with no T/C, and many T/C values between a quarter and a half above the control. Other doses and runs of a compound stand elsewhere. T/C is the treated group as % of the vehicle group. Some doses have a count of surviving animals in place of a T/C: the source files T/C as zero there, which appears to mark a toxic dose or a test without result, not a measured value. Some doses without a T/C left all or most animals alive at the check, yet need not have been tolerated: survival well below the control is almost never listed, so the zero probably covers shortened survival too. Counts of survivors are from the toxicity check (mostly the fifth day) where no day follows; animals may have died later. Schedule codes are those of the source, taken here to give the interval after Q, in days (D) or hours (H), and the number of doses after X. Some entries hold several experiments; their values stand side by side, smallest first. Where survival is the endpoint, this PubChem deposit counts one and a half times the control or more as active, and values a quarter to a half above the control carry no call in these data; other NCI protocols may use other cut-offs. Some T/C values are followed by the survivors on the day toxicity was checked, most often the fifth; without a count, all were alive then.

On to `Cc1ccc2nc(-c3ccc4nc(-c5ccc(N=Nc6ccc(-c7nc8ccc(-c9nc%10ccc(C)c(S(=O)(=O)O)c%10s9)cc8s7)cc6)cc5)sc4c3)sc2c1S(=O)(=O)O`, for which the survivor count by setting is: under setting [1], 9 of 10; under setting [2], 9 of 10; under setting [3], 0 of 10.
Consider `C(=N/NC1=NCCN1)/c1c2ccccc2c(/C=N\NC2=NCCN2)c2ccccc12`, for which the survivor count runs as follows: under setting [4], 10 of 10; under setting [1], 10 of 10.
On to `S=C1NCc2cncnc2N1`, for which the survivor count under setting [5] is 0 of 10 and the survivor count under setting [6] is listed as 0 of 10.
As for `O=CC(NC(=O)N(CCF)N=O)C(O)C(O)C(O)CO` (centres undefined), the T/C runs as follows: (dose: 7.5 mg/kg/injection, schedule: Q01DX001 (ip), vehicle: saline) 127 % of control; (dose: 15.0 mg/kg/injection, schedule: Q01DX001 (ip), vehicle: saline) 140 % of control.
As for `O=C(CCl)Oc1ccc(-c2ccccc2)cc1Br`, the survivor count under setting [7] is given as 6 of 10.
In the case of `CCCCCC[C@H]([C@H](C)O)n1cnc2c(N)ncnc21`, the T/C was 143 % of control under setting [8] and 138 % of control under setting [5]. Also, under “dose: 200.0 mg/kg/injection, schedule: Q01DX009 (ip), vehicle: Klucel (hydroxypropylcellulose) (HPC)”, the survivor count is recorded as 1 of 10.
On to `CCOC(=O)c1[nH]c2cccc3c2c1CC(Br)C3=O` (centres undefined), for which the survivor count reads like this: under setting [9], 5 of 10; under setting [10], 1 of 10; under setting [7], 0 of 10.
As to `O=NN(CCCl)C(=O)Oc1cc(Cl)c(Cl)cc1Cl`, the T/C reads like this: under setting [8], 127 and 142 % of control; (dose: 12.5 mg/kg/injection, schedule: Q01DX009 (ip), vehicle: Klucel (hydroxypropylcellulose) (HPC)) 128 [9 of 10 alive] and 138 % of control; under setting [5], 141 % of control. Moreover, the survivor count is 10 of 10 under setting [6]; 0 of 8 and 8 of 10 (dose: 100.0 mg/kg/injection, schedule: Q01DX009 (ip), vehicle: Klucel (hydroxypropylcellulose) (HPC)).
On to `c1cc(-c2cc3ccc(C4=NCCN4)cc3[nH]2)ccc1C1=NCCN1`, for which the survivor count reads like this: (dose: 25.0 mg/kg/injection, schedule: Q01DX009 (ip), vehicle: suspension in saline) 9 of 10; under setting [1], 10 of 10; under setting [11], 4 of 10; under setting [12], 0 of 10; under setting [13], 0 of 10.
Consider `O=c1n(CC2CO2)c(=O)n(CC2CO2)c(=O)n1CC1CO1` (centres undefined), for which the T/C is, setting by setting: (dose: 6.25 mg/kg/injection, schedule: Q01DX009 (ip), vehicle: saline with Tween-80) 138 % of control; under setting [14], 139 % of control; under setting [15], 141 and 147 % of control. Moreover, the survivor count runs as follows: under setting [16], 10 of 10; under setting [1], 10 of 10; under setting [11], 10 of 10; under setting [9], 8 of 10 and 10 of 10; under setting [12], 2 of 10 and 10 of 10; under setting [13], 0 of 10 and 8 of 10. The survivor count under setting [10] was 0 of 10 and 6 of 10; the survivor count (dose: 200.0 mg/kg/injection, schedule: Q01DX009 (ip), vehicle: suspension in saline) was 0 of 10 and 1 of 10.
On to `COC(=O)[C@@H]1c2cc3c(c(O)c2[C@@H](OC)C[C@@]1(C)O)C(=O)c1c(O)cc2c(c1C3=O)OC1O[C@@]2(C)[C@H](O)[C@@H](N(C)C)[C@@H]1O`, for which the survivor count is, setting by setting: under setting [12], 3 of 10; under setting [2], 1 of 10; under setting [3], 0 of 10.
As for `N#CN=[N+]([O-])c1ccc(C(=O)O)cc1`, for the setting “dose: 60.0 mg/kg/injection, schedule: Q01DX009 (ip), vehicle: Klucel (hydroxypropylcellulose) (HPC)”, the survivor count was 2 of 10 and 10 of 10.
Regarding `CNC(=S)C#N`, the survivor count (dose: 50.0 mg/kg/injection, schedule: Q01DX009 (ip), vehicle: saline + Tween-80 + alcohol) is reported as 9 of 10; the survivor count (dose: 100.0 mg/kg/injection, schedule: Q01DX009 (ip), vehicle: saline + Tween-80 + alcohol) is 5 of 10; the survivor count (dose: 200.0 mg/kg/injection, schedule: Q01DX009 (ip), vehicle: saline + Tween-80 + alcohol) is 0 of 10.
`O=NNc1ccccn1`: the T/C is, setting by setting: (dose: 6.25 mg/kg/injection, schedule: Q01DX009 (ip), vehicle: water) 131, 133, 141 % of control; under setting [17], 141 and 148 % of control. The survivor count under setting [17] is recorded as 10 of 10 and the survivor count (dose: 25.0 mg/kg/injection, schedule: Q01DX009 (ip), vehicle: water) was 10 of 10.
As for `Cc1cc(Br)c2nsnc2c1[N+](=O)[O-]`, under setting [7], the survivor count is reported as 5 of 10.
With `CC(=O)N(C)c1ccc(Nc2cc(C)[nH]c3ccc4ncnc4c23)cc1`, the T/C under setting [14] was 132 and 149 % of control; the T/C under setting [15] is 144 % of control; the T/C under setting [4] is 139 % of control [9 of 10 alive]; the T/C under setting [1] was 149 % of control [9 of 10 alive]. Besides, the survivor count under setting [12] is 9 of 10 and 10 of 10; the survivor count under setting [2] is given as 0 of 10.
As to `O=C1C=C2C(=CCOC2O)O1` (centres undefined), the survivor count runs as follows: (dose: 4.0 mg/kg/injection, schedule: Q01DX009 (ip), vehicle: Klucel (hydroxypropylcellulose) (HPC)) 4 of 10; (dose: 8.0 mg/kg/injection, schedule: Q01DX009 (ip), vehicle: Klucel (hydroxypropylcellulose) (HPC)) 0 of 10.
Regarding `CC(=O)Nc1ccc(/C=N/Nc2ccc([N+](=O)[O-])cn2)cc1`, under setting [16], the survivor count is reported as 10 of 10.
As for `C/C=C1\C(=O)O[C@@]23C=C[C@H]4C(C(=O)OC)=CO[C@@H](O[C@H]12)[C@H]43`, the survivor count (dose: 30.0 mg/kg/injection, schedule: Q01DX009 (ip), vehicle: Klucel (hydroxypropylcellulose) (HPC)) was 9 of 10.
Regarding `CC(=O)Nc1ccc(N=Nc2c(C)nn(C(=N)N)c2C)cc1`, the survivor count under setting [12] was 4 of 10.
Regarding `CN(C)CC(O)c1cc2ccccc2c2ccccc12` (centres undefined), the survivor count under setting [1] is listed as 7 of 7.
As for `COc1cc2c(c(OC)c1OC)-c1c(cc3c(c1OC)OCO3)CC(C)C(C)(O)C2OC(=O)c1ccccc1` (centres undefined), the survivor count (dose: 400.0 mg/kg/injection, schedule: Q01DX009 (ip), vehicle: saline + Tween-80 + alcohol) was 10 of 10.
Regarding `CN(N=O)C(=O)N[C@@H](C=O)[C@@H](O)[C@H](O)[C@H](O)CO`, the T/C by setting is: (dose: 12.5 mg/kg/injection, schedule: Q01DX009 (ip), vehicle: other) 135 % of control; under setting [15], 110, 112, 114 [9 of 10 alive], 119 % of control; (dose: 25.0 mg/kg/injection, schedule: Q01DX009 (ip), vehicle: other) 135 % of control; under setting [4], 110, 112, 113, 115 % of control; (dose: 50.0 mg/kg/injection, schedule: Q01DX009 (ip), vehicle: other) 129 and 135 % of control; under setting [1], 115, 123, 138, 195 % of control. Besides, the T/C by setting is: under setting [18], 139 % of control; under setting [12], 126, 133, 137 % of control. Further, the survivor count is, setting by setting: under setting [18], 10 of 10; under setting [12], 10 of 10; (dose: 200.0 mg/kg/injection, schedule: Q01DX009 (ip), vehicle: other) 4 of 10 and 8 of 10; under setting [2], 4 of 10, 9 of 10, 10 of 10.
